Reference: PubChem BioAssay AID1688 (National Center for Advancing Translational Sciences (NCATS), 2009)
Out of some 220,000 compounds screened, about 2,400 (1.1%) were called active. The inconclusive results got no clear call from the source; some entries with a clear call stand among them for comparison. The call rests on the fitted dose curve; in most records, active means well fitted inhibition curve with a large enough effect; inconclusive means small, poorly fitted or top-dose-only effect, or effect the other way; inactive means no such curve, though single readings can be large or run the other way. Potencies of inconclusive entries are doubtful fits and often do not repeat.

Experiment: qHTS Multiplex Assay to Identify Dual Action Probes in a Cell Model of Huntington: Aggregate Formation (GFP); further: nearly all actives have a fitted effect of over 60% in size
Details: PC12 HttQ103-GFP aggregates, Acumen cytometry, 40 h; activity change, negative = inhibition: at 46.1 µM (top of the series)
How it was run: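 Huntingtin Q103 exon 1–GFP aggregates in induced PC12 cells (100 nM tebufenozide) were quantified by cytometry from lysates, with compounds dosed in titration.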
On the % scale 0 is the no-effect control and ±100 the full control effect; potency means the concentration at half of the fitted maximal effect.

| Compound | activity change, negative = inhibition | Potency |
| --- | --- | --- |
| O=C(N/N=C/c1c(O)n(CCc2ccc(F)cc2)c(=O)[nH]c1=O)c1ccccc1 | inactive: 15.5% [at 9.22 µM] |  |
| COc1ccc(N=Nc2c(O)[nH]c(=S)[nH]c2=O)cc1 |  | inactive |
| CC1CN(c2cc([N+](=O)[O-])ccc2Cl)CC(C)N1 (stereo not drawn) |  | inconclusive: 2.51 µM [activator, partial curve] |
| CCOc1ccc(-c2cc(C)[n+](CCN(CC)CC)c(-c3ccc(OCC)cc3)c2)cc1 |  | inconclusive: 3.16 µM [inhibitor, single point] |
| CC(N=Cc1c(O)[nH]c(=O)[nH]c1=O)c1ccccc1 (stereo not drawn) |  | inactive |
| c1ccc(CNc2c3c(nc4ccccc24)CCC3)cc1 |  | active: 4.47 µM |
| CN(C)c1ccc(/C=C/C=C/c2sc3ccccc3[n+]2C)cc1 |  | inconclusive: 3.98 µM [inhibitor, single point] |
| COc1ccc(/C=C2\C(=O)NC(=S)N(C)C2=O)cc1C | inactive: 2.17% [at 9.22 µM] |  |
| O=C(/C=C/c1ccc2c(c1)OCO2)c1c(O)n(CCC2=CCCCC2)c(=O)[nH]c1=O |  | inactive |
| C[n+]1c(-c2ccccc2)cc(-c2ccc(Cl)cc2)cc1-c1ccccc1 |  | inconclusive: 14.1 µM [inhibitor, single point] |
| Nc1ccc(N)cc1 |  | inactive |
| CCCNS(=O)(=O)c1ccc(OCC(=O)N2CCN(Cc3ccc4c(c3)OCO4)CC2)cc1 |  | inconclusive: 10 µM [inhibitor, partial curve] |
| CC(C)CN(C(=O)CN1CC=C(c2ccccc2)CC1)c1c(N)n(CC(C)C)c(=O)[nH]c1=O |  | inactive |
| Cc1cccn2c(=O)c3c(nc12)N1CCc2ccccc2C1C1(C3)C(=O)NC(=O)N(C)C1=O (stereo not drawn) |  | inconclusive: 15.8 µM [inhibitor, single point] |
| CCOc1ccc(-n2c(O)c(C=Nc3ccc(N(CC)CC)cc3)c(=O)[nH]c2=O)cc1 |  | inconclusive: 2.82 µM [activator, full curve, poor fit] |
| COc1ccccc1N1C(=O)NC(=O)/C(=C/c2ccc3c4c(cccc24)CC3)C1=O |  | inactive |
| COc1ccc(Oc2cc(NC(=O)c3nn(C)cc3[N+](=O)[O-])cc([N+](=O)[O-])c2)cc1 |  | inconclusive: 5.62 µM [activator, single point] |
| Cc1cc(C)cc(N2C(=O)NC(=O)/C(=C\C=C\c3ccco3)C2=O)c1 |  | inconclusive: 35.5 µM [inhibitor, single point] |
| COc1ccc(OC(=O)Nc2ccccc2)cc1 |  | inconclusive: 0.562 µM [inhibitor, full curve, poor fit] |
| Clc1ccc2c(c1)C(c1ccccc1Cl)=NCc1nnc(N3CCN(CCSc4ccccc4)CC3)n1-2 |  | inconclusive: 31.6 µM [inhibitor, single point] |
| CC/C(=C\C=C\[C@@H]1C=C[C@@H]2CCC[C@H]2[C@@H]1C(=O)c1ccc[nH]1)[C@@H]1O[C@@H]([C@@H](C)C(=O)O)CC[C@@H]1C |  | active: 11.2 µM |
| O=C(CSC1c2ccccc2-c2ccccc21)N/N=C/c1ccccc1O | inactive: -5.36% [at 1.84 µM] |  |

| Compound | activity change, negative = inhibition | Potency |
| --- | --- | --- |
| CCOC(=O)c1c(/N=C/C2C(=O)NC(=S)NC2=O)sc(C)c1C |  | inactive |
| CCCCCn1c(=O)c(C(=O)Nc2ccncc2)c(O)c2ccccc21 |  | inconclusive: 1.26 µM [inhibitor, full curve, poor fit] |
| O=C(NCc1ccco1)c1ccc(Cn2c(=O)c3ccccc3n(Cc3cccc(F)c3)c2=O)cc1 |  | inconclusive: 2.82 µM [activator, single point] |
| Cc1ccc(O)c(C(=O)c2cc(C(=O)NCCC(C)C)c(=O)n(CCC(C)C)c2)c1 |  | inconclusive: 35.5 µM [inhibitor, single point] |
| Cc1c2ccncc2c(C)c2c1[nH]c1ccccc12 |  | inactive |
| COC(=O)C1=CO[C@@H](C)[C@@H]2CN3CC[C@]4(C(=O)Nc5ccccc54)[C@@H]3C[C@H]12 |  | inconclusive: 11.2 µM [activator, single point] |
| CCN1CCN(c2ncnc3ccc(Br)cc23)CC1 |  | active: 7.08 µM |
| O=C1NC(=O)N(c2ccccc2)C(=O)/C1=C/c1ccc([N+](=O)[O-])s1 |  | inconclusive: 35.5 µM [inhibitor, single point] |
| CCC(=O)Oc1ccc(C(=O)Nc2cccc(C(=O)c3ccccc3)c2)cc1 |  | inconclusive: 12.6 µM [inhibitor, single point] |
| CCON=O |  | inactive |
| Oc1c(Cl)cc(Cl)cc1CN1CCN(Cc2ccccc2)CC1 |  | inconclusive: 17.8 µM [inhibitor, single point] |
| Nc1c2c(nc3sc4c(c13)CCCCC4)CCCC2 |  | inconclusive: 35.5 µM [inhibitor, single point] |
| CC(=O)Oc1ccccc1C(=O)Nc1ncc([N+](=O)[O-])s1 |  | inconclusive: 25.1 µM [inhibitor, partial curve, poor fit] |
| O=C1c2ccccc2C(=O)N1Cc1nc2ccccc2c(=O)n1-c1ccccn1 |  | inactive |
| O=C(c1ccc(CNS(=O)(=O)c2ccccc2)cc1)N1CCC2(CC1)OCCO2 |  | inconclusive: 22.4 µM [activator, single point] |
| CCCCn1c(=O)c(C(=O)Nc2ccccc2S(N)(=O)=O)c(O)c2ccccc21 |  | inconclusive: 35.5 µM [inhibitor, single point] |
| N=C1c2ccccc2CN1c1cccc([N+](=O)[O-])c1 |  | inconclusive: 0.501 µM [activator, full curve, poor fit] |
| Cc1ccc2c(c1)C1CN(C)CCC1N2C(=O)c1cn(-c2ccccc2)nc1-c1ccccc1 (stereo not drawn) |  | inconclusive: 35.5 µM [inhibitor, single point] |
| O=C1NC(=O)N(CCC2=CCCCC2)C(=O)/C1=C/c1cccs1 | inactive: -2.47% [at 9.22 µM] |  |
| COc1cc(/C=C2/C(=O)N(c3ccccc3)N=C2C)ccc1OS(=O)(=O)c1ccccc1 |  | inconclusive: 35.5 µM [inhibitor, single point] |
| CN(CC(=O)Nc1ccc(N2CCOCC2)cc1)CC(=O)Nc1cccc(C#N)c1 |  | inconclusive: 2.82 µM [inhibitor, full curve, poor fit] |

Fetched by structure from above:

| Compound | activity change, negative = inhibition | Potency |
| --- | --- | --- |
| Cc1ccc2c(c1)C1CN(C)CCC1N2C(=O)c1cn(-c2ccccc2)nc1-c1ccccc1 (stereo not drawn) |  | inconclusive: 35.5 µM [inhibitor, single point] |
| CCN1CCN(c2ncnc3ccc(Br)cc23)CC1 |  | active: 7.08 µM |
| N=C1c2ccccc2CN1c1cccc([N+](=O)[O-])c1 |  | inconclusive: 0.501 µM [activator, full curve, poor fit] |
